# Reference: paper PMC6177004
# Amino acid sequences for entries named in this document (tags omitted). A change or cut given only in a name is not applied to a line headed by its entry. Residues count along the entry.
# UniProt Q55FU3: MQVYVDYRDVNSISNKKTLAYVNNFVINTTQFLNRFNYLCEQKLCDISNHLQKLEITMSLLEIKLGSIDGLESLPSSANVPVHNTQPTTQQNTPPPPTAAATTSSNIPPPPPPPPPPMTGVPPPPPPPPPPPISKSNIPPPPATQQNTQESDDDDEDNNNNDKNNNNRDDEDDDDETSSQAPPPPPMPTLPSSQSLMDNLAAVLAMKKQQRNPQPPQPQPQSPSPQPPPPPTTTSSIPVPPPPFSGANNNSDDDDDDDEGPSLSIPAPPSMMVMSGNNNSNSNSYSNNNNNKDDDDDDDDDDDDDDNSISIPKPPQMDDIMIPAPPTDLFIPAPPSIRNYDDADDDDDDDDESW
# UniProt Q54I79: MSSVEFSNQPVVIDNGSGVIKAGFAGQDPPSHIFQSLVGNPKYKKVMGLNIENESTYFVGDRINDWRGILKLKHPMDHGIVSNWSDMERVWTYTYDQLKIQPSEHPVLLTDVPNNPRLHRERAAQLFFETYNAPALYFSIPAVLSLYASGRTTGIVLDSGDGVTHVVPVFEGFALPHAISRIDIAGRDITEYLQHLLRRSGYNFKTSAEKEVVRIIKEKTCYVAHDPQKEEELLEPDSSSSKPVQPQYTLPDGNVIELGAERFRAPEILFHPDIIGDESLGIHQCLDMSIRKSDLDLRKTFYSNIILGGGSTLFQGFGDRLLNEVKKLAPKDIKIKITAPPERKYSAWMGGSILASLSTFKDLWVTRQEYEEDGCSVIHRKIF
# UniProt Q8T869, residues 21-658: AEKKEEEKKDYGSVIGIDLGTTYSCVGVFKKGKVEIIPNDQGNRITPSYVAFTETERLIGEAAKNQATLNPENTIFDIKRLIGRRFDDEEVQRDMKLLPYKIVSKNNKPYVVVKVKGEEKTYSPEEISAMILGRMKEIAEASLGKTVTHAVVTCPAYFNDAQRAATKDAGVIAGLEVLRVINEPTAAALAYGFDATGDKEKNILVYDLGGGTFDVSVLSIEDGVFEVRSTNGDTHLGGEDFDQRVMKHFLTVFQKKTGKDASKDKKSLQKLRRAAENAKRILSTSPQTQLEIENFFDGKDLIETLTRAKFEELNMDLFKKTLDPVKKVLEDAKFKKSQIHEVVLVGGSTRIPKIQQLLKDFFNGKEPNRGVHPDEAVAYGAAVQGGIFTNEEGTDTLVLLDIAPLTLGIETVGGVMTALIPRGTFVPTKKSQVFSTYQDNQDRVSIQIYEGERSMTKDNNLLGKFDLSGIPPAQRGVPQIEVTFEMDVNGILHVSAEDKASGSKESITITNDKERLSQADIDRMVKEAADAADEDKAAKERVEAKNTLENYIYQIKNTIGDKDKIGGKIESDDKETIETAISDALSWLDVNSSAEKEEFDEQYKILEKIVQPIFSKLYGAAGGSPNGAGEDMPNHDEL
# UniProt Q552E2: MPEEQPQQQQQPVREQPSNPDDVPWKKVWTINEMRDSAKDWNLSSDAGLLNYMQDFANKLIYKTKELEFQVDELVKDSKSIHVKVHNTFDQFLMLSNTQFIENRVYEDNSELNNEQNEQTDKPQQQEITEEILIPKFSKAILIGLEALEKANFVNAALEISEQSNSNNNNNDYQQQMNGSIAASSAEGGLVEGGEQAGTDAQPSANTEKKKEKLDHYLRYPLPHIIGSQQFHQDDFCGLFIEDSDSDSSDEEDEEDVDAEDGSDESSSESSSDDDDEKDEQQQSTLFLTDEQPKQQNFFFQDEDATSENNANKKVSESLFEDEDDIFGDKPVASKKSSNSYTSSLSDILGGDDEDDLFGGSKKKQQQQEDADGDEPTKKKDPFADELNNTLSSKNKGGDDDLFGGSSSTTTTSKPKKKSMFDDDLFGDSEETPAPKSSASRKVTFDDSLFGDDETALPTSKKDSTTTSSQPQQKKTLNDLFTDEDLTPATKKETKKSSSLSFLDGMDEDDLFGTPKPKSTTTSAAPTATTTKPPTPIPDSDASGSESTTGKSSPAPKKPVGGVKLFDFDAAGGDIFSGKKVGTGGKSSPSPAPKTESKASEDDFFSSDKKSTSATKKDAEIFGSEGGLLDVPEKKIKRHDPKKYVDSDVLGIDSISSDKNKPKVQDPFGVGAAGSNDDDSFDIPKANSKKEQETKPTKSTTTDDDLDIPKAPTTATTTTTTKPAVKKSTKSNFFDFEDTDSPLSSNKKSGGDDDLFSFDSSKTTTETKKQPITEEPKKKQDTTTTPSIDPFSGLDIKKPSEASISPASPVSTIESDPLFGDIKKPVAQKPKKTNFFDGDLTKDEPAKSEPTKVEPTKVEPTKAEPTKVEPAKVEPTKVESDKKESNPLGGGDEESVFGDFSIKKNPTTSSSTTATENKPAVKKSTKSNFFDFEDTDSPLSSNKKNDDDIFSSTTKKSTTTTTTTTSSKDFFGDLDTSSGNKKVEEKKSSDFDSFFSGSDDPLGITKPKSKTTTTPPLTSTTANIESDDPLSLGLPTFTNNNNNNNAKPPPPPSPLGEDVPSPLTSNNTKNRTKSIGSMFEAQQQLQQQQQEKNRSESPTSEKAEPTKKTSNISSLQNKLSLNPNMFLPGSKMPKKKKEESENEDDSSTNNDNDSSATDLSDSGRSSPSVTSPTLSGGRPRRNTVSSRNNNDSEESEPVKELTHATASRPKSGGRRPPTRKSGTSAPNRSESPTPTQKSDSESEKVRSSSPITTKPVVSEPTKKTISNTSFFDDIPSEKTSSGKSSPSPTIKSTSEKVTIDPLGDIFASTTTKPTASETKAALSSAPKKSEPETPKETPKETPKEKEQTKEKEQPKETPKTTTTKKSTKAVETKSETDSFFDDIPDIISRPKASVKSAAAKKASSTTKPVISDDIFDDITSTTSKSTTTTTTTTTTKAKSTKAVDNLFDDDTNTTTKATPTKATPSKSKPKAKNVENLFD
# Target: T1, Str^WT-GFP (full-length Dictyostelium discoideum strumpellin fused to GFP) (Dictyostelium discoideum) (UniProt Q54IR8)
# T1 sequence: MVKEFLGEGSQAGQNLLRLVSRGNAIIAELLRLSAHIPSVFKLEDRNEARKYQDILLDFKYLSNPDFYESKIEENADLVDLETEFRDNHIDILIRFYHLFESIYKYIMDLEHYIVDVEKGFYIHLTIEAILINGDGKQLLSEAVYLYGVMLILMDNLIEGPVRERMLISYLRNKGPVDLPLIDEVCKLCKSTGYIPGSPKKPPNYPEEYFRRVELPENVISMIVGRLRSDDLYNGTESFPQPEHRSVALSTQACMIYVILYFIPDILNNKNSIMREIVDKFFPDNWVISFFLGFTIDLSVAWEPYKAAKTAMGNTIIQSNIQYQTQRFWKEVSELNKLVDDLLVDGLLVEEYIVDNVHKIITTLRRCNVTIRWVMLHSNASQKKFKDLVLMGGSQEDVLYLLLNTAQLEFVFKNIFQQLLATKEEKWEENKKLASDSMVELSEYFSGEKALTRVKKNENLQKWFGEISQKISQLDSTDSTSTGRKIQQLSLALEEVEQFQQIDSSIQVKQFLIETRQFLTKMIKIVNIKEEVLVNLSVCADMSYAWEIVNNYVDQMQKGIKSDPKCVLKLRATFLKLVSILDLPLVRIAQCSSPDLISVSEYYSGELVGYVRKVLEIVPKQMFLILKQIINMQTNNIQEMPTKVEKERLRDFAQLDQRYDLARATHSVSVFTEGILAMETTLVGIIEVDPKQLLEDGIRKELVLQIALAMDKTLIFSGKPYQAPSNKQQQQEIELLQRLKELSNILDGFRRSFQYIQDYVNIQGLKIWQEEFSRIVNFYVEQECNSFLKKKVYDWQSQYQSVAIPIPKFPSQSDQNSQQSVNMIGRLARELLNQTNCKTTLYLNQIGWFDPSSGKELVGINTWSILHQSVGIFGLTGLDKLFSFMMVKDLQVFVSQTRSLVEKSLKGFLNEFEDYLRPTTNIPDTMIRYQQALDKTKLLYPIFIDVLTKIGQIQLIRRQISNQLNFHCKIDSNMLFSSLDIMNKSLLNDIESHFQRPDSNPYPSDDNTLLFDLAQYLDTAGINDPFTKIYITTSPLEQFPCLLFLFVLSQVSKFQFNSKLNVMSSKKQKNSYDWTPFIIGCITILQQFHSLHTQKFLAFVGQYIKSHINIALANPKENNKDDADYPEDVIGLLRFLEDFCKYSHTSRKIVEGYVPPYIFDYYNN
# Assay: affinity purification with mass spectrometry; GFP-Trap beads pull GFP-tagged strumpellin from the cleared lysate of 2x10^8 D. discoideum cells (20 mM Tris-HCl pH 7.5, 20 mM MgCl2, 5% glycerol, 1 mM DTT, 100 mM NaCl); washes with 50 mM Tris-HCl pH 7.5, 150 mM NaCl, 0.2% NP40; on-bead digestion; four independent experiments; AX2|GFP as negative control
row,binding,Substance
1,binds,coiled coil domain containing 53 (CCDC53) (from UniProt Q55FU3)
2,binds,"Arp1, a component of the dynactin complex (from UniProt Q54I79 1-383)"
3,binds,Grp78 or Bip2 (78 kDa glucose-regulated protein homologue) (from UniProt Q8T869 21-658)
4,binds,FAM21 (from UniProt Q552E2)
5,binds,putative myosin light chain kinase (MLCK) (enzyme)

# No constants are given. Whether binding was seen depends on the method and setting. Binding seen in cells or lysates may run through a third protein. These calls come from enrichment with a bait or labelling near it, and not all partners need be listed. Where a sequence is shown, tags or fusion partners need not be part of it.
